Primary screen of a compound library

Results are given as percent effect. The controls that fix the scale are not given in the record; negative values are as filed. This is an unselected part of the compounds tested. A dash means the value is not listed here; it may have been measured.

A: 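Whole-cell assay for inhibitors of Mycobacterium tuberculosis growth, labelled Cornell in the record; the read-out is not stated. The concentration is filed as 10 mM, unlikely as a test dose, so the dose is not known. The record gives no direction; compounds strong in two other growth screens of this library score well above the rest, so higher reads as stronger inhibition. Of about 53,000 compounds tested this way, about 900 (1.7%) reached 50% or more in at least one test.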
B: 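Assay on Mycobacterium tuberculosis, filed only as a heat shock assay from Cornell; the read-out is not stated. The concentration is filed as 10 mM, unlikely as a test dose, so the dose is not known. Higher reads as stronger inhibition (inferred: compounds with an IC50 in retests scored well above the rest). Size under these conditions: about 69,000 compounds, about 930 of them at 50% or above in at least one test.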

SMILES,A,B
COc1ccc(C2CCCN2C(=O)NCCNc2ncccn2)cc1 (stereo not shown),2.112,-15.46
CCOCC(=O)N1CCC(Oc2ccc(C(F)(F)F)cn2)CC1,31.17,-16.57
CC(C)COCC1CN(C(=O)c2cscn2)Cc2ncn(C)c21.O=C(O)C(F)(F)F (stereo not shown),-3.001,13.45
COCC1COCCC12CCN(C(=O)CCc1ccccc1)CC2 (stereo not shown),15.83,-3.47
Cc1noc(C)c1CN1CCn2cc(CNc3ccccn3)nc2C1.O=C(O)C(F)(F)F.O=C(O)C(F)(F)F,4.43,4.3
CN(C)C(Cn1ccnc1-c1ccccc1C(=O)O)c1ccccc1Cl (stereo not shown),-9.393,-10.6
Cc1occc1C(=O)NCC1OCCc2cn(C)nc21.O=C(O)C(F)(F)F (stereo not shown),10.82,40.29
COCCN1CCC(CNC(=O)c2cc(Cl)c[nH]2)CC1,5.127,1.366
CC(C)(C)c1cnc(CN2CCC[C@H]2CO)o1,22.62,28.54
CC(=O)NCc1cc2n(n1)CCN(Cc1cccc(CCN)c1)C2,-9.815,17.76
CN(Cc1cc(F)ccc1F)CC(C)(CO)CO,-,-0.5073
O[C@H]1[C@H](n2cc(CN3CCCC3)nn2)c2ccccc2C12CCNCC2,-13.77,1.213
Cc1ncsc1C(=O)N1CCC(O)(CN2CCc3ccccc3C2)C1 (stereo not shown),-,-21.21
O=C(O)C(F)(F)F.[H][C@@]12CCCO[C@]1([H])[C@H](N1CCOCC1)CN(C(=O)c1ccccc1)C2,18.9,-17
Cc1cc(C2CCCN2C(=O)COc2ccc(CC#N)cc2)no1 (stereo not shown),-30.69,7.015
Cc1ccc(S(=O)(=O)N2CCC(Oc3ccccn3)CC2)c(C)c1,23.61,10.23
CC(=O)Nc1ccc(CN2CCCC(c3cc4ncccc4[nH]3)C2)cc1 (stereo not shown),7.818,-5.399
CCC(C)(C)c1cc(-c2c(C)nn(CCO)c2C)c(C#N)c(N)n1,-17.96,-11.89
[H][C@@]12C[C@H](O)CCN1C(=O)CN(CCSc1ccccn1)C2=O,11.83,17.21
CCC(CC)N(C)S(=O)(=O)c1ccc(CCNC(C)=O)s1,18.67,8.312
O=C(O)C(F)(F)F.O=c1cc(Cn2cncn2)nc2n1CCCN(Cc1ccc(F)cc1)C2,-,-14.92
Cc1nc(C(=O)N2CCOCC2)cc(N2CCC(C(N)=O)CC2)n1,-,-6.37
COCCN1CCN(CC(C)(O)c2cccc(C(F)(F)F)c2)CC1 (stereo not shown),-,-0.6305
Cc1nc(CN2C[C@@H](NS(=O)(=O)N(C)C)[C@H](C(C)C)C2)cs1,-,-6.91
NC(=O)c1c[nH]nc1NCc1ccc2c(c1)OCO2,-1.022,11.65
CCn1nc(C)c(CCNC(=O)c2cccc(NCC(=O)O)c2)c1C,-8.436,3.286
COc1ccc(S(=O)(=O)NCCn2cnc(C)cc2=O)cc1C,-0.6621,3.014
CN(C)C1CCCN(C(=O)NCCC(=O)N2CCCCCC2)C1 (stereo not shown),22.33,4.102
O=C(Nc1cn[nH]c1)N(CCO)C1CCc2ccccc21 (stereo not shown),-8.218,-3.632
Cn1nc(CNc2ncccn2)c2c1CN(c1cnccn1)CC2,21.6,5.039
Cc1nccn1-c1ccc(C(=O)NCC(F)(F)F)nn1,18.88,-11.97
COCCC(=O)N1CCCC1c1csc(Nc2ncccn2)n1 (stereo not shown),-,-10.77
CCNC(=O)CNC(=O)Nc1c(F)cc(F)cc1-c1ccccc1,-15.39,3.357
CC(C)C(N)C1=N/C(=C2\N=CN=N2)NO1 (stereo not shown),5.161,-23.58
N#CC1(c2ccccc2)CCN(C(=O)C2CCCN(CC(N)=O)C2)CC1 (stereo not shown),23.55,5.005
O=C(c1ccc(Cl)o1)N1CCCC(c2cc(C(F)(F)F)[nH]n2)C1 (stereo not shown),24.34,17.61
CCOCC(=O)Nc1nccn1Cc1ccc(Br)cc1,58.9,106.8
O=C(O)C(F)(F)F.O=C(O)C(F)(F)F.O=C(O)C(F)(F)F.[H][C@@]12OCCN(Cc3cccnc3)[C@@]1([H])CC[C@H]2OCc1csc(C)n1,-,-29.41
CCOCC(=O)NCCc1nc(C2CC2)cc(C(F)(F)F)n1,5.976,5.272
CNc1snc(C)c1C(=O)NC(C)CC(=O)c1cccs1 (stereo not shown),5.299,-3.202
CC(C)(C)n1ncc2c1NC(=O)CC2c1ccc(C#N)cc1 (stereo not shown),-7.568,21.53
COCC1CC2(CCN(Cc3cnn(C)c3)CC2)CN1C(C)C.O=C(O)C(F)(F)F.O=C(O)C(F)(F)F (stereo not shown),-3.376,-6.913
CCN(CC)C(=O)[C@@H]1C[C@@H](NC(=O)c2cccc(N(C)C)c2)CN1C,7.735,-41.31
O=C(c1csc(I)c1)N1CCc2c(ncn2C2CC2)C1,33.01,7.698
CC(=O)N1CCc2[nH]cnc2C1C1=CCCN(CCn2cccc2)C1 (stereo not shown),7.904,8.786
CCc1nc(COc2ccc(N(C)C(C)=O)cc2)no1,-49.95,1.567
O=C(Cn1cc(Cl)cn1)N1CCCC(c2ccn[nH]2)C1 (stereo not shown),2.983,24.95
Cc1cc(NC2CCN(Cc3ccccn3)CC2)n2nc(C)c(C)c2n1,7.675,3.704
CCn1c(C)nnc1CN(C)C1CCN(CCOc2ccccc2)C1 (stereo not shown),-,-23.26
CN(Cc1cccc(C#N)c1)C(=O)C1CC(c2cccc(F)c2)=NO1 (stereo not shown),29.26,20.18
CCOCC1c2c(ncn2C)CCN1C(=O)c1cnc(C)cn1.O=C(O)C(F)(F)F (stereo not shown),-2.205,18.53
CC(Cc1cn(CCc2n[nH]c(=O)[nH]2)nn1)c1ccccc1 (stereo not shown),-,6.557
O=C(NC1CCN(Cc2ccc(F)cc2)CC1)c1ccc2c(c1)CCC2,-,-183.9
CSc1cc(CNC(=O)CCOc2ccccc2C)ccn1,1.068,-19.95
COc1ccnc(CN2CCC(O)(c3ccc(C)cn3)CC2)c1OC,23.67,-3.087
[H][C@@]12CS(=O)(=O)C[C@]1([H])N(Cc1ccc(F)c(C)c1)CCN2CCOC,12.29,-14.31
COC(=O)c1cccc(S(=O)(=O)NCC(c2ccco2)N2CCCC2)c1 (stereo not shown),12.54,-20.2
O=C(O)C(F)(F)F.O=C(O)C(F)(F)F.[H][C@@]12CN(C(=O)c3ccsc3)C[C@]1([H])OCCN2CCN(C)C,-23.82,25.92
Cn1ccnc1SC1CCc2ccccc2NC1=O (stereo not shown),9.658,-12.07
OC(CNc1ccc(Cl)cn1)CN1CCOCC1 (stereo not shown),-,15.57
CN(Cc1cccc(C#N)c1)c1ncc(C(N)=O)cc1Cl,-,-8.143
CCCc1nc(C)c(CN2CC3(CCOC3)CCC2=O)s1 (stereo not shown),6.683,3.182
Cc1ccc(OCCN(C)S(=O)(=O)c2cnn(C)c2)cc1,-11.57,1.672
Oc1ccc(Cl)cc1CNCc1ccccc1Cl,26.21,26.83
O=C(c1ccco1)N1CC[C@@H](N2CCOCC2)[C@@H]1Cc1ccccc1,2.65,-0.5094
Cc1ccc(S(=O)(=O)N2CCC(Cn3cc(C(C)(C)N)nn3)CC2)s1,10.2,-0.1704
O=C1Nc2ccccc2/C1=C1\CCCN1,0.5672,5.544
O=C(Cn1ccc2cc(Br)ccc21)NCc1ccc(C(=O)O)cc1,31.98,25.98
Cn1nc(CN2CCCN(C3CCCC3)CC2)c2c(Cl)cccc21,60.03,57.91
CCOc1ccnc(N2CCCN(c3nc(C4CC4)ns3)CC2)n1,7.466,-2.987
Cc1cccc(CN2CCCC3(Cc4ccccc4CNC3=O)C2)n1 (stereo not shown),-,-20.55
CC(C)n1nc(Cn2cccn2)c2c1CN(C1CCOC1)C2.O=C(O)C(F)(F)F (stereo not shown),-66.67,-0.8168
CCC(CO)N(Cc1cccs1)C(=O)Cc1ccncc1 (stereo not shown),23.77,8.217
Cc1cnc2n(c1=O)C(CC(=O)NCc1ccc(F)cc1)CS2 (stereo not shown),-0.5547,1.895

For reference, 9 entries once more:

SMILES,A,B
CC(=O)Nc1ccc(CN2CCCC(c3cc4ncccc4[nH]3)C2)cc1 (stereo not shown),7.818,-5.399
COCCN1CCN(CC(C)(O)c2cccc(C(F)(F)F)c2)CC1 (stereo not shown),-,-0.6305
CN(Cc1cccc(C#N)c1)c1ncc(C(N)=O)cc1Cl,-,-8.143
CSc1cc(CNC(=O)CCOc2ccccc2C)ccn1,1.068,-19.95
CN(C)C1CCCN(C(=O)NCCC(=O)N2CCCCCC2)C1 (stereo not shown),22.33,4.102
Cc1ccc(S(=O)(=O)N2CCC(Oc3ccccn3)CC2)c(C)c1,23.61,10.23
CCC(CC)N(C)S(=O)(=O)c1ccc(CCNC(C)=O)s1,18.67,8.312
O=C(c1ccc(Cl)o1)N1CCCC(c2cc(C(F)(F)F)[nH]n2)C1 (stereo not shown),24.34,17.61
Cc1cccc(CN2CCCC3(Cc4ccccc4CNC3=O)C2)n1 (stereo not shown),-,-20.55

Measurements from “University of Dundee, Small-Polar-MMV Screening Library” (2021), ChEMBL document CHEMBL3988442.